Results published in article doi:10.1101/739631.
No constants are given. Whether binding was seen depends on the method and setting. For some of these results: In cells and extracts the contact can be indirect. Some results given as binding are weak or reduced against the parent protein; the word gives no strength. For some of these results: Tags and fused reporters may be left off the sequences shown.

The chains behind the UniProt entries cited, without tags or fusion partners.
UniProt Q921J2: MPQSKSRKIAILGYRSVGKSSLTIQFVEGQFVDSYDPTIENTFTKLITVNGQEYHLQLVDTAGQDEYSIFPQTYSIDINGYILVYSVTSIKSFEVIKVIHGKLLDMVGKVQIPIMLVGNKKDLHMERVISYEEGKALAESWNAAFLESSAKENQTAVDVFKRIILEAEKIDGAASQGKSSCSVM
UniProt P42859: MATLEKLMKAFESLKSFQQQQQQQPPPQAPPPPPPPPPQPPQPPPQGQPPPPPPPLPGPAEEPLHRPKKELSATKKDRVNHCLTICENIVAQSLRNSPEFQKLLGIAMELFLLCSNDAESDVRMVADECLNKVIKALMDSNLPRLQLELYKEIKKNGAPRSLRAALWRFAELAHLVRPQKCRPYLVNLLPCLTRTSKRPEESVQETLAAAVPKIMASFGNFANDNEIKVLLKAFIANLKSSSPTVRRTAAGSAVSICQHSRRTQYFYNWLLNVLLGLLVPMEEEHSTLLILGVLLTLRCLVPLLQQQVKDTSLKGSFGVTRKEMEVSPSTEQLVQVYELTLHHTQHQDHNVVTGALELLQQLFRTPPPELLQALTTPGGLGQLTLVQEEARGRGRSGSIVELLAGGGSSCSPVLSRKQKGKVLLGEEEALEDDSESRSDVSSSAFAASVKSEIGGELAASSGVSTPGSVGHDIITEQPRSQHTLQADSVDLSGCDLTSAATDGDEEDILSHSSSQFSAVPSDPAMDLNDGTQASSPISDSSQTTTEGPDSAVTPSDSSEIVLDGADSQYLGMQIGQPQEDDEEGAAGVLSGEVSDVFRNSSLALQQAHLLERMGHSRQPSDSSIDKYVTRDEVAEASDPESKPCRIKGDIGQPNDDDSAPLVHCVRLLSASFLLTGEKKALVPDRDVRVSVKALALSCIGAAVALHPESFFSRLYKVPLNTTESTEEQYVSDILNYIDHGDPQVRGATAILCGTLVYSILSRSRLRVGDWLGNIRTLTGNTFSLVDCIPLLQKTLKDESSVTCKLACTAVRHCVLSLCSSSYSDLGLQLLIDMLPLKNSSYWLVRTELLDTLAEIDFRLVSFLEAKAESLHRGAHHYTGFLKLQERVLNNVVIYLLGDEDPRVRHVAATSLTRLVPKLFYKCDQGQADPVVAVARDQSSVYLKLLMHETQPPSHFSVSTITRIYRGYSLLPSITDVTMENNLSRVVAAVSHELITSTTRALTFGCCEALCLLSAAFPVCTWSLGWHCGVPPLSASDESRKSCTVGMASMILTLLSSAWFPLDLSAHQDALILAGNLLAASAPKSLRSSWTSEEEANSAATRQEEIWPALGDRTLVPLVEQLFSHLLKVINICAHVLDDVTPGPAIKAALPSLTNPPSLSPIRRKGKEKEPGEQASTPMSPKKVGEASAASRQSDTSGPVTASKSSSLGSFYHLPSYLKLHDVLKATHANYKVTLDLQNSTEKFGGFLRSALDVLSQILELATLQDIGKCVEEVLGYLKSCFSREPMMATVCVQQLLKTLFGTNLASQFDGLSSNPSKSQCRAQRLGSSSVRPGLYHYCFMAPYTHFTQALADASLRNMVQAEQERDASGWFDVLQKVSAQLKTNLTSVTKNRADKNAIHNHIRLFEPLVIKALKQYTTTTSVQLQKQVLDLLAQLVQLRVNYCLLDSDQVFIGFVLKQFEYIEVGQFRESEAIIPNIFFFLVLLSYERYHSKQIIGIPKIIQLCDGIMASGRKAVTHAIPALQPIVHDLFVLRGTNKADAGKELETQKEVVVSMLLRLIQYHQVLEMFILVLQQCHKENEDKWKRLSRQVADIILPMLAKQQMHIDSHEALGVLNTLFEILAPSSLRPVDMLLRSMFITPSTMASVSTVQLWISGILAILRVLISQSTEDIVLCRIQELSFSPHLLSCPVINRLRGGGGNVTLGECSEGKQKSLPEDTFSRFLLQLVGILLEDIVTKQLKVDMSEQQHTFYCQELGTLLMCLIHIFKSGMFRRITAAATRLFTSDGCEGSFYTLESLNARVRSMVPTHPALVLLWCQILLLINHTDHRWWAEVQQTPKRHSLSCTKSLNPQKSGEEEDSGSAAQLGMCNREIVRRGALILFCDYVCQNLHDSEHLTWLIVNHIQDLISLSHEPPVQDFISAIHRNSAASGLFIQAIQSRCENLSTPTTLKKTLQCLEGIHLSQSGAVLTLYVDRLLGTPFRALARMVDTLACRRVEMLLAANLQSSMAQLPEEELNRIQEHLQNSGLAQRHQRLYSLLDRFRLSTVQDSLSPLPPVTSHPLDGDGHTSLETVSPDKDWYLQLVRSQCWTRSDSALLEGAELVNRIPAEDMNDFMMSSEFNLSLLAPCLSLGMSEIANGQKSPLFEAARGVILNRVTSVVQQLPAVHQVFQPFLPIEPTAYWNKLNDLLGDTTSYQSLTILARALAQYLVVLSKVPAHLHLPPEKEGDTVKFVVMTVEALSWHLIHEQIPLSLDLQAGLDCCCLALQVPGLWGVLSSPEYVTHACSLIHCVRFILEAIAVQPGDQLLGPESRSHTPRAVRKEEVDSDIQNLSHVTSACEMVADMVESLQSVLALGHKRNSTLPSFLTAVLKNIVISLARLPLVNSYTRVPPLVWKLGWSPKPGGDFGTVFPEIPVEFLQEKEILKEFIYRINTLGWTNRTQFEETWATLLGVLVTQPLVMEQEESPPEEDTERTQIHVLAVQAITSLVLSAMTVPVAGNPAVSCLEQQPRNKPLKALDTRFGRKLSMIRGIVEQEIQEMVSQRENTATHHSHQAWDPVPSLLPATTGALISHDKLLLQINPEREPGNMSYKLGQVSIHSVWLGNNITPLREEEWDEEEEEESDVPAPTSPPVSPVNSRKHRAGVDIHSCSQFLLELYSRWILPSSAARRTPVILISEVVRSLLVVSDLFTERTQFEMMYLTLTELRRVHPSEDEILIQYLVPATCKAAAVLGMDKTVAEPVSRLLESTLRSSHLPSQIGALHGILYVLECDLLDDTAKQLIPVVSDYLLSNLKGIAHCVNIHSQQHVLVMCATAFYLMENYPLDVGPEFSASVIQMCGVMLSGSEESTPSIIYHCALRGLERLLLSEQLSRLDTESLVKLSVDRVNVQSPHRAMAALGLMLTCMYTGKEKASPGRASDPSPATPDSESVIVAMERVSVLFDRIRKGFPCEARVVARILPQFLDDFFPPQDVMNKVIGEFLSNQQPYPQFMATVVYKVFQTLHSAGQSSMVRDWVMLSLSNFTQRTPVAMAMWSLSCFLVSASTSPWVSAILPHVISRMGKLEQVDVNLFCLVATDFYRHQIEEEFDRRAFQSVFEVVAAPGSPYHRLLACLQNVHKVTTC

T1: GST-FL-RasGRP1 (UniProt Q9R1K8)
T1 sequence: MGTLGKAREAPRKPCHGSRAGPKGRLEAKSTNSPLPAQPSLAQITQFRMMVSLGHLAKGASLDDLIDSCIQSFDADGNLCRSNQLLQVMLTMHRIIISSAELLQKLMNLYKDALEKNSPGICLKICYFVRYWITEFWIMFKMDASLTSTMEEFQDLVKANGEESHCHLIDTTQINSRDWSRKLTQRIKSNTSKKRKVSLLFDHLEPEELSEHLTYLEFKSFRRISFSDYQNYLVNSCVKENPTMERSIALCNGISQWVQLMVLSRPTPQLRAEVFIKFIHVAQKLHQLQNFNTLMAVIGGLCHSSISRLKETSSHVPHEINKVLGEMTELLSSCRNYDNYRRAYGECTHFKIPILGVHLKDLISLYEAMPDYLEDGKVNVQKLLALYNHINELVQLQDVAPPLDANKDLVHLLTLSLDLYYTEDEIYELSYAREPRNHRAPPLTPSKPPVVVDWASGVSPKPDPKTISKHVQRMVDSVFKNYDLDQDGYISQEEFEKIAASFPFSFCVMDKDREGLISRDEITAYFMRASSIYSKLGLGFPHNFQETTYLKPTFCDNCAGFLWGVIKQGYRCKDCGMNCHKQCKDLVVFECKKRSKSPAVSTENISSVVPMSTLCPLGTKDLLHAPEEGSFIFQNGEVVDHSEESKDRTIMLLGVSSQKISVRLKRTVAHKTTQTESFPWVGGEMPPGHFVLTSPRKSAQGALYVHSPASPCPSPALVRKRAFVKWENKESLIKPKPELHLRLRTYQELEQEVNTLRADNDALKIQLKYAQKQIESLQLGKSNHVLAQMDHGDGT

T2: GST-RasGRP1 GEF domain (1-470 amino acids) (UniProt Q9R1K8)
T2 sequence: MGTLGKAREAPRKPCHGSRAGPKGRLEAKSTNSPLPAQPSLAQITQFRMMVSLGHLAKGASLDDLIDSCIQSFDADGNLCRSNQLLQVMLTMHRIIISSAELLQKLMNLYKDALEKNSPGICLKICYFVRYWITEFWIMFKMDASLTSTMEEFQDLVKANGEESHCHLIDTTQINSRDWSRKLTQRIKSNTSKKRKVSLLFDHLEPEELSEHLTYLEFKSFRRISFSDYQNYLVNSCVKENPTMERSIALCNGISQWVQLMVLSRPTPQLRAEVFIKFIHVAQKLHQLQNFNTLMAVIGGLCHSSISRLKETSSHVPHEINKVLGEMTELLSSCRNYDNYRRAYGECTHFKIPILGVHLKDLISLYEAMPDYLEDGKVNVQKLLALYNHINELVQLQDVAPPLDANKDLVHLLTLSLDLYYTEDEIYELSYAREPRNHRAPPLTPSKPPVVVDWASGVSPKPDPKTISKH


Tests used:
GST-FL-RasGRP1 = target: T1, GST-FL-RasGRP1; assay: pull-down
[1] = target: T2, GST-RasGRP1 GEF domain (1-470 amino acids); assay: pull-down
[2] = target: Rheb (endogenous, striatum) (mouse (endogenous in striatum)) (UniProt Q921J2); assay: co-IP

binding (GST-FL-RasGRP1) | binding [1] | binding [2] | Molecule
binds | binds | – | Rheb (recombinant) (from UniProt Q15382 1-184)
– | – | binds | huntingtin (endogenous, striatum) (from UniProt P42859)
– | – | binds | RasGRP1 (endogenous, striatum) (protein, UniProt Q9Z1S3 1-795) MGTLGKAREAPRKPCHGSRAGPKARLEAKSTNSPLPAQPSLAQITQFRMMVSLGHLAKGASLDDLIDSCIQSFDADGNLCRNNQLLQVMLTMHRIIISSAELLQKVMNLYKDALEKNSPGVCLKICYFVRYWITEFWIMFKMDASLTSTMEEFQDLVKANGEETHCHLIDTTQINSRDWSRKLTQRIKSNTSKKRKVSLLFDHLEPEELSEHLTYLEFKSFRRISFSDYQNYLVNSCVKENPTMERSIALCNGISQWVQLMVLSRPTPQLRAEVFIKFIHVAQKLHQLQNFNTLMAVIGGLCHSSISRLKETSSHVPHEINKVLGEMTELLSSCRNYDNYRRAYGECTHFKIPILGVHLKDLISLYEAMPDYLEDGKVNVQKLLALYNHINELVQLQEMAPPLDANKDLVHLLTLSLDLYYTEDEIYELSYAREPRNHRAPPLTPSKPPVVVDWASGVSPKPDPKTISKHVQRMVDSVFKNYDLDQDGYISQEEFEKIAASFPFSFCVMDKDREGLISRDEITAYFMRASSIYSKLGLGFPHNFQETTYLKPTFCDNCAGFLWGVIKQGYRCKDCGMNCHKQCKDLVVFECKKRIKSPAISTENISSVVPMSTLCPLGTKDLLHAPEEGSFIFQNGEIVDHSEESKDRTIMLLGVSSQKISVRLKRTVAHKSTQTESFPWVGGETTPGHFVLSSPRKSAQGALYVHSPASPCPSPALVRKRAFVKWENKESLIKPKPELHLRLRTYQELEQEINTLKADNDALKIQLKYAQKKIESLQLGKSNHVLAQMDHGDSA
